{"source": "PubChem BioAssay AID504467", "about": "(National Center for Advancing Translational Sciences (NCATS), 2011)", "note": "Out of some 330,000 compounds screened, about 7,700 (2.3%) were called active. Inconclusive results, whose numbers are uncertain, are shown with a selection of clear calls. Calls follow the shape of the dose curve; as a rule, active = well fitted inhibition curve with a large enough effect; inconclusive = small, poorly fitted or top-dose-only effect, or effect the other way; inactive = flat fitted curve, though single readings scatter. A potency beside an inconclusive call is a rough fit, not a confirmed value."}
{"experiment": "qHTS screen for small molecules that inhibit ELG1-dependent DNA repair in human embryonic kidney (HEK293T) cells expressing luciferase-tagged ELG1; also: nearly all actives have a fitted effect of over 55% in size; also: potency is read from the fitted curve at half-maximal effect", "settings": "HEK293T ELG1-luciferase reporter, luminescence, 16 h, DNA damage induced by 5-fluorouridine; series mostly up to 46.1 µM", "procedure,_shortened": "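5-Fluorouridine DNA damage + compound/DMSO, 2,000 cells/well, 16 h, 37 °C/5% CO2. ONE-Glo, 30 min RT, luminescence. Readout = decrease in reporter signal.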"}
{"compound": "COCC1CCN(C(=O)C2CCN(c3nc(-c4ccccc4)nc4c3CCC4)CC2)C1", "note": "(centres undefined)", "Potency": "inconclusive: 20.6 µM [inhibitor, partial curve]"}
{"compound": "Cc1nn(CC(=O)N2CCC(C)CC2)c(=O)c2nn(-c3ccccc3)c(C)c12", "Potency": "inactive"}
{"compound": "COc1ccc(CN(C)c2ncnc3sccc23)c(OC)c1OC", "Potency": "active: 9.2 µM"}
{"compound": "CCN1CCN(C(=S)NCCOC)CC1", "Potency": "inactive"}
{"compound": "CCC(=O)Nc1sc(C(=O)Nc2ccccc2F)c(C)c1C(=O)OC", "Potency": "inactive"}
{"compound": "CCCN(CCC)CCCn1c(=O)[nH]c2ccccc21", "Potency": "inactive"}
{"compound": "CC(C)(C)c1ccc(-c2noc(-c3ccno3)n2)cc1", "Potency": "inconclusive: 14.6 µM [activator, partial curve]"}
{"compound": "CCCCC(=O)Nc1cccc(NC(=O)c2ccc(Br)o2)c1", "Potency": "inconclusive: 29.1 µM [inhibitor, single point]"}
{"compound": "Cn1c(=O)n(Cc2ccccc2)c(=O)c2c1nc(NCC1CCCO1)n2Cc1ccccc1", "note": "(centres undefined)", "Potency": "active: 20.6 µM"}
{"compound": "O=C(COC(=O)/C=C/c1ccccc1)NCCC1=CCCCC1", "Potency": "inactive"}
{"compound": "O=C(OCc1ccco1)c1ccc(S(=O)(=O)N2CCCCC2)cc1", "Potency": "inactive"}
{"compound": "CC1CC2C3CCC4=CC(=O)C=CC4(C)C3(F)C(O)CC2(C)C1(O)C(=O)CO", "note": "(centres undefined)", "Potency": "inactive"}
{"compound": "Cc1ccc(CCNS(=O)(=O)c2cc3c(cc2Cl)NC(=O)CO3)cc1", "Potency": "inactive"}
{"compound": "CCOC(=O)C1=C(O)CCn2c1nc1ccccc12", "Potency": "inconclusive: 1.64 µM [activator, partial curve, poor fit]"}
{"compound": "Cn1cnc(C(=O)N2CCc3ccccc3C2)c1C(=O)N1CCc2ccccc2C1", "Potency": "inconclusive: 23.1 µM [activator, partial curve, poor fit]"}
{"compound": "Cc1ccc(Cl)cc1N1CCN(C(=S)NCCc2ccccc2)CC1", "Potency": "inconclusive: 23.1 µM [inhibitor, partial curve, poor fit]"}
{"compound": "COc1cccc(-c2ccc3ncnc(NCc4cc(C)cs4)c3c2)c1", "Potency": "inconclusive: 14.6 µM [inhibitor, partial curve, poor fit]"}
{"compound": "Cc1ccccc1NC(=O)c1ccc2nc(N3CCOCC3)sc2c1", "Potency": "inconclusive: 8.2 µM [activator, partial curve, poor fit]"}
{"compound": "CC(=O)c1cccc(S(=O)(=O)N2CCCC(c3nc4c(nnn4Cc4ccc(C)cc4)c(=O)[nH]3)C2)c1", "note": "(centres undefined)", "Potency": "inconclusive: 25.9 µM [inhibitor, single point]"}
{"compound": "Cc1ccc(C)c(S(=O)(=O)N2CCN(C(=O)Cc3c(F)cccc3Cl)CC2)c1", "Potency": "inconclusive: 14.6 µM [inhibitor, single point]"}
{"compound": "O=C(NC1=NCCS1)C1CC(=O)N(c2ccc(Cl)cc2)C1", "note": "(centres undefined)", "Potency": "inconclusive: 18.3 µM [activator, single point]"}
{"compound": "COc1ccc(-c2sc(Nc3ccccc3)n[n+]2-c2ccc(F)cc2)c(C)c1C", "Potency": "inconclusive: 23.1 µM [inhibitor, single point]"}
{"compound": "NC(=O)COc1ccc(C(=O)/C=C2/C(=O)Nc3ccccc32)cc1", "Potency": "inactive"}
{"compound": "C(=Nc1ccc(N2CCOCC2)cc1)c1c[nH]c2ccccc12", "Potency": "inconclusive: 16.4 µM [activator, partial curve, poor fit]"}
{"compound": "CCOC(=O)c1c(C)nn(-c2ccc(NC(=O)c3c(C)noc3C)cc2)c1C", "Potency": "inconclusive: 20.6 µM [inhibitor, partial curve]"}
{"compound": "COC(=O)c1c(NC(=O)CN2CCCC(C)C2)c2c(C)cccc2n1C", "note": "(centres undefined)", "Potency": "inactive"}
{"compound": "O=S(=O)(O)c1ccc(N2N=C(c3ccccc3)CC2c2ccccc2)cc1", "note": "(centres undefined)", "Potency": "inactive"}
{"compound": "C=CCn1c(=O)c2c(nc3n2CCN3c2cccc(Cl)c2C)n(C)c1=O", "Potency": "inconclusive: 29.1 µM [inhibitor, partial curve, poor fit]"}
{"compound": "CCN(CC)c1ccc(S(=O)(=O)N2CCOCC2)cc1NC(=O)COC(=O)/C=C/c1ccc(C)o1", "Potency": "inconclusive: 18.3 µM [inhibitor, single point]"}
{"compound": "O=C(Nc1ccc(F)c([N+](=O)[O-])c1)C(=O)c1c(O)[nH]c2ccccc12", "Potency": "inactive"}
{"compound": "CN1CCN(C(=O)c2ccc3c(c2)N(Cc2ccccc2)CCS3)CC1", "Potency": "inactive"}
{"compound": "O=C(Nc1ccccn1)c1ccc(Br)c(S(=O)(=O)N2CCCCC2)c1", "Potency": "inactive"}
{"compound": "COc1ccc(C(=O)/C=C/C(=O)N(Cc2ccc3c(c2)OCO3)C(C(=O)NC2CCCCC2)c2ccncc2)c(O)c1", "note": "(centres undefined)", "Potency": "active: 7.31 µM"}
{"compound": "COc1ccc(NCc2nc3ccccc3n2CCOc2ccc(C)cc2)cc1", "Potency": "inconclusive: 20.6 µM [activator, single point]"}
{"compound": "COc1ccccc1NC(=O)C1=C(C)NC2=C(C(=O)CC(c3ccc(OC)c(OC)c3)C2)C1c1coc2ccccc2c1=O", "note": "(centres undefined)", "Potency": "active: 10.3 µM"}
{"compound": "N#CC1(NC(=O)CSc2nc3ncc(Cl)cc3[nH]2)CCCCC1", "Potency": "inconclusive: 0.58 µM [inhibitor, single point]"}
{"compound": "CCCn1nc(C(=O)NNC(=O)c2ccc(OC(F)F)cc2)c2ccccc2c1=O", "Potency": "inconclusive: 18.3 µM [inhibitor, partial curve]"}
{"compound": "Cc1ccc(S(C)(=O)=NC(=O)c2cc(C)on2)cc1", "note": "(centres undefined)", "Potency": "inconclusive: 20.6 µM [activator, partial curve, poor fit]"}
{"compound": "CCCOc1ccc(C(=O)N(Cc2cccs2)C2CCS(=O)(=O)C2)cc1", "note": "(centres undefined)", "Potency": "inconclusive: 11.6 µM [inhibitor, partial curve, poor fit]"}
{"compound": "COc1ccc(-n2nc(C(=O)NCC(=O)NC(C)C)c3ccccc3c2=O)cc1Cl", "Potency": "inconclusive: 14.6 µM [inhibitor, partial curve, poor fit]"}
{"compound": "CC1CCN(C(=O)Nc2cccc(NC(=O)N3CCC(C)CC3)c2)CC1", "Potency": "inactive"}
{"compound": "O=C(C1COc2ccccc2O1)N1CCN(S(=O)(=O)c2cc(F)ccc2F)CC1", "note": "(centres undefined)", "Potency": "inconclusive: 16.4 µM [inhibitor, single point]"}
{"compound": "Cc1ccc(CNC(=O)C(=O)NCC2OCCCN2S(=O)(=O)c2ccc(F)cc2)cc1", "note": "(centres undefined)", "Potency": "inconclusive: 16.4 µM [inhibitor, single point]"}
{"compound": "COC(=O)[C@@]12CCCCN1[C@H](c1ccc(-c3ccc(C(C)=O)cc3)cc1)[C@H]1C(=O)N(C)C(=O)[C@H]12", "Potency": "inconclusive: 14.1 µM [inhibitor, single point]"}
